Data on one molecule can be found in article PMC8774185, “Open-Bundle Structure as the Unfolding Intermediate of Cytochrome c′ Revealed by Small Angle Neutron Scattering” (Biomolecules, 2022).

Experiment [1] deals with Cytochrome c′ from Alcaligenes xylosoxidans NCIMB 11015 (Alcaligenes xylosoxidans NCIMB 11015) (UniProt P00138). The experiment is described as follows: small-angle neutron scattering (SANS); 5.5 mg/mL Cyt c′ in D2O, phosphate buffer with DCl, pD 1.7; KWS-1 beam line; Debye function fit; this sample is the standard for the MW ratios; both purified.
Experiment [2] has the same target. Briefly: small-angle neutron scattering (SANS); 5.3 mg/mL Cyt c′ in D2O, phosphate buffer with NaOD, pD ~13; KWS-1 beam line; MW ratio from I(0)/C against the pD 1.7 sample; joint-clubs model and ab initio bead model; both purified.

These are yes or no findings as the source states them, for the method shown.

B1: Cytochrome c′ from Alcaligenes xylosoxidans NCIMB 11015 (natural protein, UniProt P00138 1-127, looked up)
chain: QFAKPEDAVKYRQSALTLMASHFGRMTPVVKGQAPYDAAQIKANVEVLKTLSALPWAAFGPGTEGGDARPEIWSDAASFKQKQQAFQDNIVKLSAAADAGDLDKLRAAFGDVGASCKACHDAYRKKK
modifications: heme prosthetic group embedded in the C-terminal region
notes: Cytochrome c′ (c-type cytochrome, four-α-helix bundle) of Alcaligenes xylosoxidans NCIMB 11015; helices A(Ala3-Lys31), B(Asp37-Phe59), C(Ala76-Asp98), D(Asp103-Arg124); His120 axial ligand; crystal structures PDB 4WGZ and 4WGY are of the same protein; also called Cyt c′; Cyt c'
On to B1, for which the binding entry in experiment [1] is reported as “no binding (condition: at pD 1.7 (5.5 mg/mL))”; in experiment [2], “no binding (condition: at pD ~13 (5.3 mg/mL))”.
